Data as given in PubChem BioAssay AID2685 (National Center for Advancing Translational Sciences (NCATS), 2010).
Some of the results follow. Further columns of the screen follow, without active or inactive calls. Compounds called inactive in the main read-out are mostly missing here. The note in brackets gives the kind of curve behind each potency; many fits are weak.

Assay: qHTS Assay for Lipid Storage Modulators in Drosophila S3 Cells;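 for cell number change: cells counted by Cell Tracker Red CMTPX staining in the red channel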
Conditions: BODIPY lipid droplet fluorescence, 18-24 h; for cell number change: measured here: cell count max response, cells fed with added oleic acid
In short: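 Laser-scanning cytometry quantifies lipid droplet accumulation (500–530 nm total intensity; droplet/cell object ratio) in oleic acid-fed (400 uM added) Drosophila S3 cells treated with a concentration series. 20 uM Triacsin C defined 100% inhibition.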

[1] = measured here: lipid fluorescence (Fed channel) AC50, cells fed with added oleic acid
[2] = measured here: cell number channel AC50, cells fed with added oleic acid

Compound | cell number change [%] | AC50 [1] | AC50 [2]
CCCCNC(=O)c1ccccc1C(=O)NCCCC | -5.34 | 29.1 µM [falling, partial curve, poor fit] | –
CCc1cccc(OCC(=O)Nc2ccc(S(=O)(=O)N3CCCC3)cc2)c1 | -10.9 | 8.2 µM [falling, partial curve] | –
CCn1c(=O)c(C(=O)NCc2ccc(Cl)cc2)c(O)c2ccccc21 | -10.2 | – | –
Cc1cc(C)c2c(=O)n(CC(=O)NCCCN3CCOCC3)sc2n1 | -160 | 29.1 µM [falling, single point] | 29.1 µM [falling, single point]
COc1ccc(CCNC(=O)C2CCCN(S(=O)(=O)c3cnc[nH]3)C2)cc1OC (stereo not given) | 3.56 | – | –
CC(=O)N1CCN(S(=O)(=O)c2ccccc2)C1c1ccccc1 (stereo not given) | -10.2 | 0.58 µM [falling, single point] | –
Cc1ccc(C2=Nc3ccccc3N(C(=O)c3ccccc3)C(C)C2)cc1 (stereo not given) | 12.9 | – | –
COc1ccc(COC(=O)C2CC(=O)N(Cc3ccccc3)C2)cc1 (stereo not given) | 21.1 | 0.00651 µM [rising, full curve, poor fit] | –
O=C(NC1CCCCC1)N(CCN1CCOCC1)Cc1cc2cc3c(cc2[nH]c1=O)OCCO3 | 3.09 | – | –
Cc1cccc(C)c1N(CC(O)Cn1c2ccccc2c2ccccc21)S(C)(=O)=O (stereo not given) | -70 | 1.46 µM [rising, partial curve] | 32.6 µM [falling, single point]
CCOC(=O)c1c(C2COc3ccccc3O2)csc1N (stereo not given) | -33.5 | 29.1 µM [falling, single point] | 29.1 µM [falling, single point]
CCCOc1ccc(CC(CC(=O)O)(C(=O)O)C(=O)O)cc1 | -6.82 | 0.517 µM [falling, full curve, poor fit] | –
O=C(O)CCC(=O)Nc1ccc(Cc2ccc(NC(=O)CCC(=O)O)cc2)cc1 | -0.563 | 0.0731 µM [falling, full curve, poor fit] | –
COc1ccc(NC(=O)CCNS(=O)(=O)c2cccc3nonc23)c(OC)c1 | – | 0.731 µM [falling, full curve, poor fit] | –
C/C(=N\NC(=O)c1nnn(-c2nonc2N)c1-c1ccc2c(c1)OCO2)c1cccs1 | 35.1 | 29.1 µM [rising, single point] | 29.1 µM [rising, single point]
O=c1cc(CN2CCN(c3cccc(Cl)c3)CC2)c2cc3c(cc2o1)CCCC3 | 30.8 | 2.06 µM [rising, partial curve] | 1.84 µM [rising, partial curve, poor fit]
CCCOc1ccc(/C(O)=C2/C(=O)C(=O)N(CCN(C)C)C2c2ccco2)cc1 (stereo not given) | -156 | 0.13 µM [falling, full curve, poor fit] | 29.1 µM [falling, single point]
Cc1cc(C)cc(NC(=O)CN2CCc3cc4c(cc3C2C)OCCCO4)c1 (stereo not given) | -2.99 | 0.231 µM [rising, partial curve, poor fit] | –
CCC(=O)NC(=S)Nc1ccc(S(=O)(=O)NC2CCCCC2)cc1 | -7.8 | 0.411 µM [rising, single point] | –
O=C1CC(c2cccc(Cl)c2)Cc2nc(N3CCN(c4ccccc4)CC3)ncc21 (stereo not given) | – | 0.731 µM [rising, single point] | 2.06 µM [rising, partial curve]

Only AC50 [1], for 2 of the compounds above:
Compound	AC50 [1]
CCCOc1ccc(CC(CC(=O)O)(C(=O)O)C(=O)O)cc1	0.517 µM [falling, full curve, poor fit]
O=C(O)CCC(=O)Nc1ccc(Cc2ccc(NC(=O)CCC(=O)O)cc2)cc1	0.0731 µM [falling, full curve, poor fit]

(list continues)

Compound | cell number change [%] | AC50 [1] | AC50 [2]
COc1ccc(C(=O)Nc2ccc(C3=NNC(=O)CC3C)cc2NC(=O)c2ccc(OC)cc2)cc1 (stereo not given) | 8.83 | – | 0.731 µM [falling, single point]
CC(=O)C1=C(O)C(=O)N(CO)C1c1ccccc1F (stereo not given) | -53.1 | – | 2.91 µM [falling, partial curve, poor fit]
O=C(CSc1nc(NS(=O)(=O)c2ccccc2)cc(=O)[nH]1)Nc1ccccc1Cl | 4.44 | – | –
C=CCNC(=O)COC(=O)c1ccc(Sc2nncn2C)c([N+](=O)[O-])c1 | 33.5 | 20.6 µM [rising, single point] | 29.1 µM [rising, single point]
O=C(/C=C/c1ccccc1[N+](=O)[O-])N1CCN(c2ccc(F)cc2)CC1 | -30.8 | 29.1 µM [falling, single point] | 29.1 µM [falling, single point]
Cc1c(=O)n(OCc2ccccn2)c2ccccc2[n+]1[O-] | 77.8 | 25.9 µM [rising, partial curve] | 18.4 µM [rising, single point]
Cc1ccccc1NC(=O)CC1S/C(=N/c2nccs2)N(C)C1=O (stereo not given) | – | 2.31 µM [rising, full curve, poor fit] | 1.03 µM [rising, partial curve]
CCCCn1c(N)c(N(CCOC)C(=O)C2CCN(C(=O)c3ccc(F)cc3)CC2)c(=O)[nH]c1=O | -14.1 | 29.1 µM [falling, single point] | –
Cn1ccc(NC(=O)Nc2ccc(Cl)cc2Cl)n1 | -12.4 | 0.92 µM [rising, full curve, poor fit] | –
O=C(CSc1nc2ccccc2[nH]1)NC(=O)NCc1ccco1 | 43 | – | 4.11 µM [rising, full curve, poor fit]
CCC(Sc1ccc2nnc(-c3ccc(OC)c(OC)c3)n2n1)C(=O)O (stereo not given) | 1.04 | 6.51 µM [falling, single point] | 1.46 µM [falling, partial curve]
Cc1ccc2c(c1)c1c3n2CCN(C=O)C3CCC1 (stereo not given) | 17 | 29.1 µM [rising, single point] | –
CO/N=C(/CS(=O)Cc1ccc(Cl)cc1)c1ccc(Cl)cc1 (stereo not given) | – | 6.51 µM [rising, single point] | –
COc1ccc(S(=O)(=O)N2CCc3ccccc32)cc1C(=O)N1CCN(C=O)CC1 | -2.85 | 6.51 µM [falling, single point] | –
CCCCNC(=O)O[C@@H]1C[C@H]2CCCC(=O)N3CC[C@@H](C1)[C@@H]23 | 12.3 | – | –
CCOC(=O)/C=C1\SCC(=O)N1CC(=O)NC(C)c1ccccc1 (stereo not given) | 6.51 | – | –
Cn1c(=O)[nH]c(=O)c2c1nc(N1CCCCCC1)n2CCCSc1nc2ccccc2o1 | -21.2 | 29.1 µM [falling, single point] | –
COc1ccccc1N1CCN(C(=O)c2cc3n(n2)C(C(F)(F)F)CC(c2ccco2)N3)CC1 (stereo not given) | 8.1 | – | 0.092 µM [rising, full curve, poor fit]
O=c1nc(-c2ccccc2)n(-c2ccc(Cl)cc2)[nH]1 | 4.03 | 32.6 µM [rising, single point] | 6.51 µM [rising, single point]
Cc1cccc(CS(=O)(=O)Cc2ccc(C(=O)NCCN3CCCCC3C)o2)c1 (stereo not given) | 15.1 | – | –

Compound | cell number change [%] | AC50 [1] | AC50 [2]
COc1ccc(/C(C)=N/N2CCCCC2)c(O)c1 | -9.01 | – | –
Cc1c(C)[n+](=O)c2c(n1[O-])CCC2 | -8.8 | – | 0.366 µM [rising, full curve, poor fit]
Cc1ccc2nsnc2c1NC(=O)c1ccc([N+](=O)[O-])cc1 | 9.94 | – | –
CCOC(=O)c1c(C)c(C)n(Cc2ccc(OC)c(OC)c2)c1C | 40.2 | 16.4 µM [rising, single point] | 14.6 µM [rising, single point]
COc1ccc(-n2c(=S)[nH]c3cc(C(=O)NCc4ccco4)ccc3c2=O)c(OC)c1 | 65 | – | 29.1 µM [rising, single point]
COC(=O)c1nn(-c2ccc(OC)cc2)c(=O)c2c(N)sc(C)c12 | 9.54 | – | –
CCOC(=O)C(=O)Nc1ccc(Oc2ccccc2)cc1 | 0.805 | – | –
COc1ccc(S(=O)(=O)N2CCC(C(=O)N[C@H](C(=O)NCc3ccncc3)C(C)C)CC2)cc1 | -24.4 | 29.1 µM [falling, single point] | –
COc1ccc(N2C(=O)CC(n3cnc4ccccc43)C2=O)cc1 (stereo not given) | 1.91 | – | –
Cc1ccccc1N=C(NOCc1ccc(Cl)cc1Cl)c1nonc1N | -59 | 13 µM [falling, partial curve] | 8.2 µM [falling, partial curve]
COc1cccc(NC(=S)/C(=C(\[O-])c2ccc(C)c([N+](=O)[O-])c2)[n+]2ccccc2)c1 | 67.8 | – | 8.2 µM [rising, partial curve]
Fc1ccccc1-c1csc(=Nc2cccnc2)n1CCCn1ccnc1 | -3.77 | 0.184 µM [rising, partial curve, poor fit] | –
O=C(NNS(=O)(=O)c1cc(Cl)cc(Cl)c1)c1sccc1-n1cccc1 | 12.9 | 18.4 µM [rising, single point] | –
O=C(Cn1nnc(-c2ccccc2)n1)Nc1ccc2c(c1)OCO2 | 44.9 | – | 16.4 µM [rising, single point]
COc1ccc(/C=N/N=C2/NC(=O)C(CC(=O)O)S2)cc1OS(=O)(=O)c1ccccc1 (stereo not given) | -19.9 | 6.51 µM [falling, single point] | –
O=C(N/N=C/c1ccc2c(c1)OCO2)c1ccc(Cl)cc1Cl | -9.52 | 0.058 µM [falling, full curve, poor fit] | –
COC(=O)[C@H](CCSC)NC(=O)Nc1ccc(OC)cc1OC | 1.17 | – | –
COc1ccc(CNC(=O)CS(=O)CC(=O)O)cc1OC (stereo not given) | 32.8 | – | –
CCOc1ccc(S(=O)(=O)n2nnc3ccccc32)cc1C | 55.8 | 23.1 µM [falling, single point] | 7.31 µM [rising, full curve]
